In this experiment the target is C-terminally strep-tagged mouse mGluR2 (mouse) (UniProt Q14BI2). Briefly: co-IP; lysates of HEK-293 cells co-transfected with HA-tagged NL1 forms and strep-tagged mGluR2, 48 h after transfection; PBS with 1% NP40; IP with anti-streptag (or HA, or mouse IgG as control), protein A/G magnetic beads; blot with anti-HA and anti-streptag.

Protein sequences, listed by entry. Tags and fused reporters are not part of them. Residues count along the entry.
UniProt Q14BI2, residues 19-872: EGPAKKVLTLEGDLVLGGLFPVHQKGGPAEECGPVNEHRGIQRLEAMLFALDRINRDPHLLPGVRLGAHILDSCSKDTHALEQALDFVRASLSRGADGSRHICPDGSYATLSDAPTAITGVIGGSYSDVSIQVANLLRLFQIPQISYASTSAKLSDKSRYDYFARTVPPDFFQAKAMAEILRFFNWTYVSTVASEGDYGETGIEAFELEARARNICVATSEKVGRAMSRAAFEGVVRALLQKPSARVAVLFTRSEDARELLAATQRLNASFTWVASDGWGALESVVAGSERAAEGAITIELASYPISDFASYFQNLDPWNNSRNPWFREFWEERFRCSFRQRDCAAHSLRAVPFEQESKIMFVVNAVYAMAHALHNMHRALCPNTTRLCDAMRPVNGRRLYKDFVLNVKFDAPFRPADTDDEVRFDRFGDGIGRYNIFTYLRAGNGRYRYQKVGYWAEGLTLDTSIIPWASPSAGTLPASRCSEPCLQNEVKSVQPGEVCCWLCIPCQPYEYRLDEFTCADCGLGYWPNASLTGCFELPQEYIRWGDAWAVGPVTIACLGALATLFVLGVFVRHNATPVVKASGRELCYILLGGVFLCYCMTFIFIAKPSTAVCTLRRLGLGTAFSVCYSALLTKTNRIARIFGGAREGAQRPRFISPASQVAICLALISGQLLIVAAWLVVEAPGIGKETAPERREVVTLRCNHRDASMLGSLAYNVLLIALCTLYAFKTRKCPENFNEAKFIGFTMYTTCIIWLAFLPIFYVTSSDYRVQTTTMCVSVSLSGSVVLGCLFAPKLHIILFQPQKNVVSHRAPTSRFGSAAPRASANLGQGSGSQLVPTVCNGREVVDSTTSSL
UniProt Q99K10, residues 46-843: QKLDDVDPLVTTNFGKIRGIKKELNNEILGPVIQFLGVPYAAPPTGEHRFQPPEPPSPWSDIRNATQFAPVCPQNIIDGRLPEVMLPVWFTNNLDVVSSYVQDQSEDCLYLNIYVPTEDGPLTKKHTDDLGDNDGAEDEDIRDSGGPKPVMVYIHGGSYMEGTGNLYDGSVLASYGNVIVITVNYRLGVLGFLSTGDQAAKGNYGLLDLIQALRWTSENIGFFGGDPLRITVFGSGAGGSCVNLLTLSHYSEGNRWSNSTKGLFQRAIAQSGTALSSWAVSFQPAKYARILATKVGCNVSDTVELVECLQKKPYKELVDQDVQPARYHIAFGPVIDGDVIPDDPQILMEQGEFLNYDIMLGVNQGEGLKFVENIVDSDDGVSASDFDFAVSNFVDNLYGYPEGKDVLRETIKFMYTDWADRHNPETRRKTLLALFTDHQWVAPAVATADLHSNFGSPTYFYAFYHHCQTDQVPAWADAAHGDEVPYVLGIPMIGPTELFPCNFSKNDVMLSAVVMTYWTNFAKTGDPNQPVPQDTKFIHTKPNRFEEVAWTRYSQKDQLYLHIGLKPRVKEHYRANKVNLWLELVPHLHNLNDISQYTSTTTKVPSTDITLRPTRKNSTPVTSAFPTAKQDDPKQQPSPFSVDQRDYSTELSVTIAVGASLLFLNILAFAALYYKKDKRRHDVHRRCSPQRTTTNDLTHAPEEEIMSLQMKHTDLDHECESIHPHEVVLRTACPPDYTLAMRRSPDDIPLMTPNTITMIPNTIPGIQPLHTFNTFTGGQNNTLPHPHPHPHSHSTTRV

Results are given in words; binding and its absence hold for the method and conditions named. Binding seen in cells or lysates may run through a third protein. Some entries that bind do so weakly or less than the wild type.

As for “N-terminally HA-tagged mouse NL1-AB (from UniProt Q99K10 46-843)”, the binding entry is “binds”.

The values are drawn from PMC5413576.
